# Test results: the supplement of paper PMC10849652
# Protein sequences, listed by entry. Tags and fused reporters are not part of them. Lines headed by an entry give the natural chain unless they say otherwise; changes in a name come on top.
# UniProt P04114: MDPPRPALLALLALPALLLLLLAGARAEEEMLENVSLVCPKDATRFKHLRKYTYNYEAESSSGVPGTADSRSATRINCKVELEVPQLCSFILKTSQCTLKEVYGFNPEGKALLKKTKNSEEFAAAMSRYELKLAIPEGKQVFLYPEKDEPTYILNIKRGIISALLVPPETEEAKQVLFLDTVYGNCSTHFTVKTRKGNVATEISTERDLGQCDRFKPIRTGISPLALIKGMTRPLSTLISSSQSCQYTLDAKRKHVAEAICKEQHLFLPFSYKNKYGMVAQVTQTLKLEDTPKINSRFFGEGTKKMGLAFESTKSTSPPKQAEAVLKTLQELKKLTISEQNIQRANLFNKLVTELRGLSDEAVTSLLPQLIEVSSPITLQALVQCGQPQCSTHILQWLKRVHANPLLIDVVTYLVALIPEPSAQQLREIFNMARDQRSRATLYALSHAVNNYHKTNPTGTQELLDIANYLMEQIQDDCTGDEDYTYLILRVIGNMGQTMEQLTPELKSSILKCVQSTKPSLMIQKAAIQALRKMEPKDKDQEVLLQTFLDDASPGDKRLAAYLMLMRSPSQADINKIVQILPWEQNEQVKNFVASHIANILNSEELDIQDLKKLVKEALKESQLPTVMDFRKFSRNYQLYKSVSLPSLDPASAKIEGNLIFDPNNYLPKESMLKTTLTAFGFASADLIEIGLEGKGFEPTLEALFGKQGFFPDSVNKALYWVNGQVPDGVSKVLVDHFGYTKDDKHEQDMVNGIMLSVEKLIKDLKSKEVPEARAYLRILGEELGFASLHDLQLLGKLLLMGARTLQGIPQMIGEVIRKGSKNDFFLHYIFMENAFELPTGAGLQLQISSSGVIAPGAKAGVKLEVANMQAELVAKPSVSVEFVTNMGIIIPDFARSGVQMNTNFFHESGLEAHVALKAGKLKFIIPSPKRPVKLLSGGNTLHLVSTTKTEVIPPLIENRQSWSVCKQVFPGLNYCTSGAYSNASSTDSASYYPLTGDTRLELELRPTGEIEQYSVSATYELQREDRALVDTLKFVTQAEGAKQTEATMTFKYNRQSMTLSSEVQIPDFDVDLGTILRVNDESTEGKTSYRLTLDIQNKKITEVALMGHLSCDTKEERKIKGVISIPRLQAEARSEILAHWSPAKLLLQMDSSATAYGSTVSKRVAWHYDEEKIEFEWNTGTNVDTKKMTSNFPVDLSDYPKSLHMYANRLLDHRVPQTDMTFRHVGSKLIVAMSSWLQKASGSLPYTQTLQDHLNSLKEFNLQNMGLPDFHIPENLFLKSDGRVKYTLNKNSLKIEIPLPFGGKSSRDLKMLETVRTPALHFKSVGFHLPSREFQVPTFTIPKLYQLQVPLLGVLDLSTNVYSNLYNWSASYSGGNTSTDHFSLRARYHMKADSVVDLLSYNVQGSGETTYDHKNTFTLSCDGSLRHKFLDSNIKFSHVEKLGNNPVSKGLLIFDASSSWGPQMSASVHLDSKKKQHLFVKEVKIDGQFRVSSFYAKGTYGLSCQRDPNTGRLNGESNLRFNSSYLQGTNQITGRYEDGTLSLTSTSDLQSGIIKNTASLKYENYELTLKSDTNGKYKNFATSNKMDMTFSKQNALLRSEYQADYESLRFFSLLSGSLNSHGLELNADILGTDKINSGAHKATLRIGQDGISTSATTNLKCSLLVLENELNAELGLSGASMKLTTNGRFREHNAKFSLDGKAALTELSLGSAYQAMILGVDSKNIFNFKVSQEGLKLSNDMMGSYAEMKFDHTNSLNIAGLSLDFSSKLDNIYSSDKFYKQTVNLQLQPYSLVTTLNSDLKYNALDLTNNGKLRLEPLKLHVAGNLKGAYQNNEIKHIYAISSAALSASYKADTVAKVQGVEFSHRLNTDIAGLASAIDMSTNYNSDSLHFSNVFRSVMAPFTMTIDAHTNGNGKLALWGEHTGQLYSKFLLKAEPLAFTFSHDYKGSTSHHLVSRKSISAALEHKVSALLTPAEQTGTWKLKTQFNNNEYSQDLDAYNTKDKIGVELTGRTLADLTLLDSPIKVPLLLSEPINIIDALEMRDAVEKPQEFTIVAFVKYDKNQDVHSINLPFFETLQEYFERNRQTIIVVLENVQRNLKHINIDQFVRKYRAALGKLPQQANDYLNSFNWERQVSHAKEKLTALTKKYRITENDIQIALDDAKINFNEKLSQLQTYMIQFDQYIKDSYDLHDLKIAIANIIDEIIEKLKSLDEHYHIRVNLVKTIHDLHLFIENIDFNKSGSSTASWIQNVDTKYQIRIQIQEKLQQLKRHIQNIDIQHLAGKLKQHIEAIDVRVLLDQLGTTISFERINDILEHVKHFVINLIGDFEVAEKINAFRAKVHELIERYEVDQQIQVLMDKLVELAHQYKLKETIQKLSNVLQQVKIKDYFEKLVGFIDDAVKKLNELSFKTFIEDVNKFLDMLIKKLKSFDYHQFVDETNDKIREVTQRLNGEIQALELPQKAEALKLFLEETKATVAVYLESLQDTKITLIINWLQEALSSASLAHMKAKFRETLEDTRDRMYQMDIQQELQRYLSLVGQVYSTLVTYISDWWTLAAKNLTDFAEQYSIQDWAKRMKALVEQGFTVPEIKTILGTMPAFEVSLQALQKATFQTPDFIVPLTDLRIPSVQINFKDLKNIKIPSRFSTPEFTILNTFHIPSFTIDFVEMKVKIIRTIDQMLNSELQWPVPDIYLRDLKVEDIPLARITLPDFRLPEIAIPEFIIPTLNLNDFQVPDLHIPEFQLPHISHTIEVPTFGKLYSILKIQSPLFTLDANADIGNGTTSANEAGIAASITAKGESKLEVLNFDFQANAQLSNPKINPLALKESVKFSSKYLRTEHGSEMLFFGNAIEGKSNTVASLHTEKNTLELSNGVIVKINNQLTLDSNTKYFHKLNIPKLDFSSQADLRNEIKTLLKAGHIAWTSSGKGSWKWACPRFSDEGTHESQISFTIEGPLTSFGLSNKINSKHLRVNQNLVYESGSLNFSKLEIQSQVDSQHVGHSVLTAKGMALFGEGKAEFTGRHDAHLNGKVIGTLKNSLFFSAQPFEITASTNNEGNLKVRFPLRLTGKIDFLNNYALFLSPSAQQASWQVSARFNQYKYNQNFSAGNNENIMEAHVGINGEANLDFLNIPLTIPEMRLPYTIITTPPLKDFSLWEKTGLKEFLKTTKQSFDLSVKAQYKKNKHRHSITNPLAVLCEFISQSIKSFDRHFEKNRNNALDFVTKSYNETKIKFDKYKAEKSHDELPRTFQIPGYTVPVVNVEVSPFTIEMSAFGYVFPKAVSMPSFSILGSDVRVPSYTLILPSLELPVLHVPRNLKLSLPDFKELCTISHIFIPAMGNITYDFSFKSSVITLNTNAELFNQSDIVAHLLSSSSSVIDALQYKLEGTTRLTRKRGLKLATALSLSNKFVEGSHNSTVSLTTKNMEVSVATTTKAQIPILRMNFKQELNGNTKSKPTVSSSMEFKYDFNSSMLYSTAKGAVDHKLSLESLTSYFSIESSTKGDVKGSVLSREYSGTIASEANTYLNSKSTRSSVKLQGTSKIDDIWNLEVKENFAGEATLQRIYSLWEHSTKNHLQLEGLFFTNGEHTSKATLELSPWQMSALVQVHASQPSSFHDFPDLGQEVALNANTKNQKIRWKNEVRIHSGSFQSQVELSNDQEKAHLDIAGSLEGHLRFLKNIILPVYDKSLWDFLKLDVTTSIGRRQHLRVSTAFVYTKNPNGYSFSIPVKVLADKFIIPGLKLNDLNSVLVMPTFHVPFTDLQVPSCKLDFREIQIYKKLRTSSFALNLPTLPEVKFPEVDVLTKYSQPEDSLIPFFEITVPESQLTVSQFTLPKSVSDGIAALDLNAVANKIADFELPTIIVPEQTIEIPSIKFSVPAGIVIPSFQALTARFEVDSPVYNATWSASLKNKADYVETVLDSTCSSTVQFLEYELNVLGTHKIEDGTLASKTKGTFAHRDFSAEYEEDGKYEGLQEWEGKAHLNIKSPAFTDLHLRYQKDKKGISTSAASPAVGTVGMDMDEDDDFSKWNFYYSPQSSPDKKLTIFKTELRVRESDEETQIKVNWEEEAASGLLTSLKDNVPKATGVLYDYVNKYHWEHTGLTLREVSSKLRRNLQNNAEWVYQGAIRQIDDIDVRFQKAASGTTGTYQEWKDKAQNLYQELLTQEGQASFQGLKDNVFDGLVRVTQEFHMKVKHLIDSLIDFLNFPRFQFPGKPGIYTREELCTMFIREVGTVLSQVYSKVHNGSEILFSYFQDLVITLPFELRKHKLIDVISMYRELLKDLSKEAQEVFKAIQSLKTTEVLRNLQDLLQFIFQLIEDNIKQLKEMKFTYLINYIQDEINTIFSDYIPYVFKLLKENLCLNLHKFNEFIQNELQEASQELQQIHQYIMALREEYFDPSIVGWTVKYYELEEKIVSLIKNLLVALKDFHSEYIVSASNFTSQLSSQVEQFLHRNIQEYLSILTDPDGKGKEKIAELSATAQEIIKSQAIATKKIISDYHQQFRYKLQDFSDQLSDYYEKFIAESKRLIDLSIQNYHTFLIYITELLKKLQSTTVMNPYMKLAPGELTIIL
# UniProt P56377: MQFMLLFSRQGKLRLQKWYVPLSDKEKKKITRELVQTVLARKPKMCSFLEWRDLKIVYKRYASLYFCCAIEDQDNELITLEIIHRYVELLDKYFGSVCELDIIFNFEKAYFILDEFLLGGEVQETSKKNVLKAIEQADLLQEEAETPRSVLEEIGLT
# UniProt P39687: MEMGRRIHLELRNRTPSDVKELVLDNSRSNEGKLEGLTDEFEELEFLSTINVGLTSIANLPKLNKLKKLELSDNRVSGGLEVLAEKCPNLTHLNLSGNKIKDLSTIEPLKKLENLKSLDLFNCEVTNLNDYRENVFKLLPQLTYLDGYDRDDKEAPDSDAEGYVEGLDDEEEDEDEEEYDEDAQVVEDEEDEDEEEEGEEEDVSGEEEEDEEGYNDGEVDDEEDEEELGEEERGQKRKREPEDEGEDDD
# UniProt Q13795: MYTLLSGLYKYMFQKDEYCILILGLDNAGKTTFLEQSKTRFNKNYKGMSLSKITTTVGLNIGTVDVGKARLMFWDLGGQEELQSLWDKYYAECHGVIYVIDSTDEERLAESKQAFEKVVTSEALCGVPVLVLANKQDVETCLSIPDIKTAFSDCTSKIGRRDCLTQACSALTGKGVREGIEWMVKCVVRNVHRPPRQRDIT
# UniProt P84085: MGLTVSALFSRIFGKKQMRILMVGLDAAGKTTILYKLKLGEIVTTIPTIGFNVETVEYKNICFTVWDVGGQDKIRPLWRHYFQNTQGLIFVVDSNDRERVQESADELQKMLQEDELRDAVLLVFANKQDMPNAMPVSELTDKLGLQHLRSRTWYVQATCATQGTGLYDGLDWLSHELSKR
# UniProt Q9NUS5: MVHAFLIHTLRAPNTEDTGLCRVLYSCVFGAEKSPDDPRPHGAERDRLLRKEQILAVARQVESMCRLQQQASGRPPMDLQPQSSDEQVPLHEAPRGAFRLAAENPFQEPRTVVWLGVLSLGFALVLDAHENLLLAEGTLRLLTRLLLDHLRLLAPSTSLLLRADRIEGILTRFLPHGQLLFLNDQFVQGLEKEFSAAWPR
# UniProt Q10567: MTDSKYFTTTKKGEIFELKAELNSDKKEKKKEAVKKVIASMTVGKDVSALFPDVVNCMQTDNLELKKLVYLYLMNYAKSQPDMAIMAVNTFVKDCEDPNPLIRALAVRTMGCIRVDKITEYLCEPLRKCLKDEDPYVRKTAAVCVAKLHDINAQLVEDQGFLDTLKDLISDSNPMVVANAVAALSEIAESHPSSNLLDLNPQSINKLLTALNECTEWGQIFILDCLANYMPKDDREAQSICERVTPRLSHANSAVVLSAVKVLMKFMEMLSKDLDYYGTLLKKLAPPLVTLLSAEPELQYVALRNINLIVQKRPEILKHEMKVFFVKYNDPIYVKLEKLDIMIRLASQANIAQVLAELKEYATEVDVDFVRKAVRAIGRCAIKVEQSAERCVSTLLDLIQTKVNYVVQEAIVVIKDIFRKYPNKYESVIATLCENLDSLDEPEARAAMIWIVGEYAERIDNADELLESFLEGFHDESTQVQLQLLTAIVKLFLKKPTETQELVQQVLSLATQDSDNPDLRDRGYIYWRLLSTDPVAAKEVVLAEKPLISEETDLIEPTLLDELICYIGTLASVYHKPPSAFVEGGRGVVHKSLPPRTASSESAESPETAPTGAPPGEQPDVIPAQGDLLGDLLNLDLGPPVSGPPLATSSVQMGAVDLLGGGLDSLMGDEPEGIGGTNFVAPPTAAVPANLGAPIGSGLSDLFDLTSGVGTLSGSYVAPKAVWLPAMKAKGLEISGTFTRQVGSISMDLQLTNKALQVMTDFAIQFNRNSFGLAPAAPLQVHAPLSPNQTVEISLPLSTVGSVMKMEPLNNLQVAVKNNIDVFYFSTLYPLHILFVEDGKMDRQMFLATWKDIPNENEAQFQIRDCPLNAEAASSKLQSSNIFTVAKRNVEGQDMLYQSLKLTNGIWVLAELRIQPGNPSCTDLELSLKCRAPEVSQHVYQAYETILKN
# The other results are listed elsewhere or left out.
# Tests used:
# Assay in all cases: log2 fold change, soluble protein after heating vs DMSO (PISA); higher = thermal stabilisation; K562 cells, 10 uM, 30 min; active = over 0.2 and 3.5 SD of the protein, either way, in both replicates (recomputed)
# [1] = compound: COC1=CC=C(C=C1)CN2C=CC3=C2C=C(C=C3)C(=O)NO
# Method in brief: (§1)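 For each measurement, 10 μM compound was applied for 30 min to K562 cells at 2×10^6 cells/mL. Aliquots were heated for 3 min across 48°C-58°C, pooled, and extracted in PBS with 0.5% NP-40 at 4°C; the supernatant after 21,000xg for 90 min was soluble protein. This was quantified by TMTpro 16plex LC-MS/MS with channel sums equalised, and thermal stability was reported relative to control samples from duplicates, on a log2 fold-change scale.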
# filanesib = compound: CON(C)C(=O)N1N=C(c2cc(F)ccc2F)S[C@@]1(CCCN)c1ccccc1 [filanesib]
# Method in brief: as §1
# zotarolimus = compound: CO[C@H]1C[C@@H]2CC[C@@H](C)[C@@](O)(O2)C(=O)C(=O)N2CCCC[C@H]2C(=O)O[C@H]([C@H](C)C[C@@H]2CC[C@H](n3cnnn3)[C@H](OC)C2)CC(=O)[C@H](C)/C=C(\C)[C@@H](O)[C@@H](OC)C(=O)[C@H](C)C[C@H](C)/C=C/C=C/C=C/1C [zotarolimus]
# Method in brief: as §1
# idasanutlin = compound: COc1cc(C(=O)O)ccc1NC(=O)[C@@H]1N[C@@H](CC(C)(C)C)[C@](C#N)(c2ccc(Cl)cc2F)[C@H]1c1cccc(Cl)c1F [idasanutlin]
# Method in brief: as §1
# alisertib = compound: COc1cc(Nc2ncc3c(n2)-c2ccc(Cl)cc2C(c2c(F)cccc2OC)=NC3)ccc1C(=O)O [alisertib]
# Method in brief: as §1
# [2] = compound: COc1cc2nc(-c3cc(F)ccc3O)nc(N[C@@H]3CNC[C@H]3C(C)(C)O)c2cc1OC
# Method in brief: as §1
# gefitinib = compound: COc1cc2ncnc(Nc3ccc(F)c(Cl)c3)c2cc1OCCCN1CCOCC1 [gefitinib]
# Method in brief: as §1
# [3] = compound: COc1cccc2cc(-c3nc([C@H]4CC[C@H](C(=O)O)CC4)n4ncnc(N)c34)[nH]c12
# Method in brief: as §1
# lapatinib = compound: CS(=O)(=O)CCNCc1ccc(-c2ccc3ncnc(Nc4ccc(OCc5cccc(F)c5)c(Cl)c4)c3c2)o1 [lapatinib]
# Method in brief: as §1
# pictilisib = compound: CS(=O)(=O)N1CCN(Cc2cc3nc(-c4cccc5[nH]ncc45)nc(N4CCOCC4)c3s2)CC1 [pictilisib]
# Method in brief: as §1
Target,log2 fold change [1],log2 fold change (filanesib),log2 fold change (zotarolimus),log2 fold change (idasanutlin),log2 fold change (alisertib),log2 fold change [2],log2 fold change (gefitinib),log2 fold change [3],log2 fold change (lapatinib),log2 fold change (pictilisib)
ARFGEF2 (UniProt Q9Y6D5),inactive: 0.013,inactive: 0.012,inactive: 0.035,inactive: -0.101,inactive: -0.032,inactive: 0.187,inactive: 0.01,inactive: 0.007,inactive: -0.003,inactive: 0.046
APOB (UniProt P04114),inactive: 0.034,active: -0.86,inactive: -0.013,inactive: -0.039,inactive: 0,inactive: -0.384,inactive: -0.129,inactive: 0.164,inactive: -0.352,inactive: 0.078
ANKHD1 isoform 6 (UniProt Q8IWZ3),inactive: -0.089,inactive: 0.227,inactive: 0.046,inactive: 0.151,inactive: -0.073,inactive: -0.186,inactive: 0.081,inactive: -0.09,inactive: 0.034,inactive: -0.035
ARCN1 (UniProt P48444),inactive: 0.001,inactive: 0.016,inactive: 0.002,inactive: -0.005,inactive: -0.051,inactive: 0.079,inactive: 0.042,inactive: -0.006,inactive: 0.003,inactive: 0.02
ANK1 isoform 14 (UniProt P16157),inactive: 0.045,inactive: 0.515,inactive: 0.185,inactive: 0.306,inactive: -0.102,inactive: -0.169,inactive: 0.156,inactive: -0.299,inactive: 0.074,inactive: -0.035
AP1S2 (UniProt P56377),inactive: -0.018,inactive: -0.016,inactive: 0.02,inactive: 0.223,inactive: -0.02,inactive: 0.043,inactive: 0.005,inactive: -0.016,inactive: -0.044,inactive: 0.035
ANKRD49 (UniProt Q8WVL7),inactive: 0.003,inactive: -0.079,inactive: -0.004,inactive: 0.046,inactive: -0.051,inactive: -0.018,inactive: -0.009,inactive: 0,inactive: 0.07,inactive: 0.127
ANAPC16 (UniProt Q96DE5),inactive: 0.064,inactive: 0.147,inactive: 0.093,inactive: -0.01,inactive: -0.08,inactive: -0.04,inactive: 0.008,inactive: -0.056,inactive: 0.03,inactive: 0.02
ANP32A (UniProt P39687),inactive: 0.079,inactive: -0.014,inactive: 0.007,inactive: -0.055,inactive: 0.013,inactive: -0.066,inactive: 0.029,inactive: -0.034,inactive: 0.012,inactive: -0.052
ARFRP1 (UniProt Q13795),inactive: 0.127,active: -0.261,inactive: 0.02,inactive: -0.168,inactive: 0.111,inactive: 0.039,inactive: -0.016,inactive: -0.024,inactive: 0.071,inactive: 0.168
ARHGEF7 isoform 5 (UniProt Q14155),inactive: 0.067,inactive: 0.046,inactive: 0.143,inactive: 0.013,inactive: -0.05,inactive: 0.048,inactive: 0.088,inactive: -0.181,inactive: -0.068,inactive: 0.112
ANP32B (UniProt Q92688),inactive: -0.038,inactive: -0.005,inactive: 0.014,inactive: -0.038,inactive: -0.045,inactive: 0.027,inactive: 0.022,inactive: 0.008,inactive: -0.046,inactive: 0.04
API5 (UniProt Q9BZZ5),inactive: 0.051,inactive: -0.047,inactive: 0.024,inactive: -0.024,inactive: -0.055,inactive: 0.018,inactive: -0.009,inactive: 0.042,inactive: -0.011,inactive: -0.004
ARFGEF1 (UniProt Q9Y6D6),inactive: 0.043,inactive: 0.014,inactive: 0.111,inactive: -0.092,inactive: -0.075,active: 0.246,inactive: 0.06,inactive: 0.016,inactive: 0.116,inactive: 0.006
ARF5 (UniProt P84085),inactive: 0.003,inactive: -0.016,inactive: -0.001,inactive: -0.055,inactive: -0.007,inactive: 0.01,inactive: 0.011,inactive: 0.065,inactive: 0.047,inactive: -0.008
ARHGEF2 (UniProt Q92974),inactive: 0.048,inactive: 0.466,inactive: 0.119,inactive: 0.249,inactive: -0.137,inactive: -0.166,inactive: -0.03,inactive: -0.274,inactive: 0.157,inactive: -0.077
AP5S1 (UniProt Q9NUS5),,,,,inactive: 0.009,,inactive: 0,inactive: 0.064,,
APLF (UniProt Q8IW19),,,inactive: -0.16,inactive: -0.058,,inactive: 0.26,,,inactive: -0.107,
AP1B1 isoform 3 (UniProt Q10567),inactive: 0.017,,inactive: -0.259,inactive: -0.219,inactive: -0.082,inactive: 0.065,inactive: 0.061,inactive: 0.057,inactive: 0.051,inactive: -0.148
AP3M2 (UniProt P53677),inactive: -0.12,,inactive: 0.03,,inactive: -0.057,,,inactive: -0.02,,
AREL1 (UniProt O15033),,,,inactive: 0.016,,,,,,

# Two records drawn at random from the list so far:
Target,log2 fold change [1],log2 fold change (filanesib),log2 fold change (zotarolimus),log2 fold change (idasanutlin),log2 fold change (alisertib),log2 fold change [2],log2 fold change (gefitinib),log2 fold change [3],log2 fold change (lapatinib),log2 fold change (pictilisib)
AP1B1 isoform 3 (UniProt Q10567),inactive: 0.017,,inactive: -0.259,inactive: -0.219,inactive: -0.082,inactive: 0.065,inactive: 0.061,inactive: 0.057,inactive: 0.051,inactive: -0.148
ANK1 isoform 14 (UniProt P16157),inactive: 0.045,inactive: 0.515,inactive: 0.185,inactive: 0.306,inactive: -0.102,inactive: -0.169,inactive: 0.156,inactive: -0.299,inactive: 0.074,inactive: -0.035
